PubChem BioAssay AID1224831 | NIAID | 2016
Test: 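Confirming genome-wide hits on LPS-triggered TNF-alpha induction with independent siRNA sequences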 (follow-up of hits). System: human THP-1 B5 monocytic leukaemia cells carrying a TNF promoter luciferase reporter, made macrophage-like with PMA. Reagent: single siRNA against human genes, 50 nM. Time to read-out: about 68 h of knock-down, then 4 h LPS. Challenge: LPS (Salmonella minnesota, TLR-grade) at 10 ng/ml for 4 h; PMA 5 ng/ml present during knock-down. Read-out: 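TNF promoter reporter read as dual luciferase ratio after 4 h LPS, normalised per plate to its median, given as replicate mean robust z-score per siRNA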. Direction: TNF reporter z-score: higher = stronger LPS-induced TNF reporter signal; z-score, median over gene's siRNAs: higher = stronger TNF reporter signal across the gene's siRNAs. Hit rule: 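Two-sided call: reduced or raised TNF reporter signal counts as active once mean z reaches about -1 or below, or about 1.5 or above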. Calls: active = changed TNF reporter (either direction); inactive = little change.
In all, the deposit lists about 3,500 reagents; shown is a part drawn at random. 731 of all reagents (21%) were called active. 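Active means either lowered or raised reporter signal; the gene-median score did not drive the per-siRNA calls.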 Reagents against one gene are numbered here.

gene | reagent | TNF reporter z-score, replicate mean | z-score, median over gene's siRNAs | Outcome
PSMB4 | 1 | -1.04 | -1.1 | active
PSMB4 | 2 | 0.8 | -1.1 | inactive
PSMB4 | 3 | -1.63 | -1.1 | active
PSMB4 | 4 | -1.28 | -1.1 | active
PSMB4 | 5 | -1.17 | -1.1 | active
PSMB4 | 6 | -0.32 | -1.1 | inactive
BLOC1S3 | 1 | 1.36 | -0.12 | inactive
BLOC1S3 | 2 | -0.49 | -0.12 | inactive
BLOC1S3 | 3 | -0.29 | -0.12 | inactive
BLOC1S3 | 4 | 0.05 | -0.12 | inactive
BLOC1S3 | 5 | 0.9 | -0.12 | inactive
BLOC1S3 | 6 | -0.73 | -0.12 | inactive
PSMA4 | 1 | -1.4 | -1.26 | active
PSMA4 | 2 | -1.37 | -1.26 | active
PSMA4 | 3 | -0.73 | -1.26 | inactive
PSMA4 | 4 | -1.17 | -1.26 | active
PSMA4 | 5 | -0.56 | -1.26 | inactive
PSMA4 | 6 | -1.35 | -1.26 | active
PHF5A | 1 | -0.5 | -0.415 | inactive
PHF5A | 2 | -0.39 | -0.415 | inactive
PHF5A | 3 | 0.58 | -0.415 | inactive
PHF5A | 4 | -0.44 | -0.415 | inactive
PHF5A | 5 | -0.68 | -0.415 | inactive
PHF5A | 6 | -0.09 | -0.415 | inactive
MPZL1 | 1 | 0.85 | 0.605 | inactive
MPZL1 | 2 | -0.83 | 0.605 | inactive
MPZL1 | 3 | 0.53 | 0.605 | inactive
MPZL1 | 4 | 0.68 | 0.605 | inactive
MPZL1 | 5 | 1.63 | 0.605 | active
MPZL1 | 6 | -0.61 | 0.605 | inactive
MLIP | 1 | -0.38 | -0.365 | inactive
MLIP | 2 | -0.82 | -0.365 | inactive
MLIP | 3 | 0.35 | -0.365 | inactive
MLIP | 4 | -1.55 | -0.365 | active
MLIP | 5 | 0.55 | -0.365 | inactive
MLIP | 6 | -0.35 | -0.365 | inactive
SPAG5 | 1 | 0.09 | 0.07 | inactive
SPAG5 | 2 | 0.73 | 0.07 | inactive
SPAG5 | 3 | -0.05 | 0.07 | inactive
SPAG5 | 4 | 0.05 | 0.07 | inactive
SPAG5 | 5 | -0.53 | 0.07 | inactive
SPAG5 | 6 | 1.41 | 0.07 | inactive
STMN2 | 1 | 0.46 | 0.185 | inactive
STMN2 | 2 | -0.09 | 0.185 | inactive
STMN2 | 3 | 0.46 | 0.185 | inactive
STMN2 | 4 | -1.81 | 0.185 | active
STMN2 | 5 | -1.13 | 0.185 | active
STMN2 | 6 | 0.66 | 0.185 | inactive
IPO13 | 1 | -0.2 | 1.66 | inactive
IPO13 | 2 | 2.35 | 1.66 | active
IPO13 | 3 | 1.83 | 1.66 | active
IPO13 | 4 | 1.49 | 1.66 | inactive
IPO13 | 5 | -0.64 | 1.66 | inactive
IPO13 | 6 | 2.17 | 1.66 | active
IGDCC3 | 1 | 0.66 | -0.21 | inactive
IGDCC3 | 2 | -0.88 | -0.21 | inactive
IGDCC3 | 3 | -1.13 | -0.21 | active
IGDCC3 | 4 | -0.32 | -0.21 | inactive
IGDCC3 | 5 | 1.59 | -0.21 | active
IGDCC3 | 6 | -0.1 | -0.21 | inactive

Part of the list above, set out differently.
MPZL1 #4
- TNF reporter z-score, replicate mean: 0.68
- z-score, median over gene's siRNAs: 0.605
- Outcome: inactive

MPZL1 #5
- TNF reporter z-score, replicate mean: 1.63
- z-score, median over gene's siRNAs: 0.605
- Outcome: active

MPZL1 #6
- TNF reporter z-score, replicate mean: -0.61
- z-score, median over gene's siRNAs: 0.605
- Outcome: inactive

MLIP #1
- TNF reporter z-score, replicate mean: -0.38
- z-score, median over gene's siRNAs: -0.365
- Outcome: inactive

MLIP #2
- TNF reporter z-score, replicate mean: -0.82
- z-score, median over gene's siRNAs: -0.365
- Outcome: inactive

MLIP #3
- TNF reporter z-score, replicate mean: 0.35
- z-score, median over gene's siRNAs: -0.365
- Outcome: inactive
